Source: article PMC9636132
Results are given in words; binding and its absence hold for the method and conditions named. In cells and extracts the contact can be indirect. Some results given as binding are weak or reduced against the parent protein; the word gives no strength. For some assays here: Where a sequence is shown, tags or fusion partners need not be part of it.

Sequences of proteins named here, by UniProt entry; tags and fusion partners are left off.
UniProt P49327: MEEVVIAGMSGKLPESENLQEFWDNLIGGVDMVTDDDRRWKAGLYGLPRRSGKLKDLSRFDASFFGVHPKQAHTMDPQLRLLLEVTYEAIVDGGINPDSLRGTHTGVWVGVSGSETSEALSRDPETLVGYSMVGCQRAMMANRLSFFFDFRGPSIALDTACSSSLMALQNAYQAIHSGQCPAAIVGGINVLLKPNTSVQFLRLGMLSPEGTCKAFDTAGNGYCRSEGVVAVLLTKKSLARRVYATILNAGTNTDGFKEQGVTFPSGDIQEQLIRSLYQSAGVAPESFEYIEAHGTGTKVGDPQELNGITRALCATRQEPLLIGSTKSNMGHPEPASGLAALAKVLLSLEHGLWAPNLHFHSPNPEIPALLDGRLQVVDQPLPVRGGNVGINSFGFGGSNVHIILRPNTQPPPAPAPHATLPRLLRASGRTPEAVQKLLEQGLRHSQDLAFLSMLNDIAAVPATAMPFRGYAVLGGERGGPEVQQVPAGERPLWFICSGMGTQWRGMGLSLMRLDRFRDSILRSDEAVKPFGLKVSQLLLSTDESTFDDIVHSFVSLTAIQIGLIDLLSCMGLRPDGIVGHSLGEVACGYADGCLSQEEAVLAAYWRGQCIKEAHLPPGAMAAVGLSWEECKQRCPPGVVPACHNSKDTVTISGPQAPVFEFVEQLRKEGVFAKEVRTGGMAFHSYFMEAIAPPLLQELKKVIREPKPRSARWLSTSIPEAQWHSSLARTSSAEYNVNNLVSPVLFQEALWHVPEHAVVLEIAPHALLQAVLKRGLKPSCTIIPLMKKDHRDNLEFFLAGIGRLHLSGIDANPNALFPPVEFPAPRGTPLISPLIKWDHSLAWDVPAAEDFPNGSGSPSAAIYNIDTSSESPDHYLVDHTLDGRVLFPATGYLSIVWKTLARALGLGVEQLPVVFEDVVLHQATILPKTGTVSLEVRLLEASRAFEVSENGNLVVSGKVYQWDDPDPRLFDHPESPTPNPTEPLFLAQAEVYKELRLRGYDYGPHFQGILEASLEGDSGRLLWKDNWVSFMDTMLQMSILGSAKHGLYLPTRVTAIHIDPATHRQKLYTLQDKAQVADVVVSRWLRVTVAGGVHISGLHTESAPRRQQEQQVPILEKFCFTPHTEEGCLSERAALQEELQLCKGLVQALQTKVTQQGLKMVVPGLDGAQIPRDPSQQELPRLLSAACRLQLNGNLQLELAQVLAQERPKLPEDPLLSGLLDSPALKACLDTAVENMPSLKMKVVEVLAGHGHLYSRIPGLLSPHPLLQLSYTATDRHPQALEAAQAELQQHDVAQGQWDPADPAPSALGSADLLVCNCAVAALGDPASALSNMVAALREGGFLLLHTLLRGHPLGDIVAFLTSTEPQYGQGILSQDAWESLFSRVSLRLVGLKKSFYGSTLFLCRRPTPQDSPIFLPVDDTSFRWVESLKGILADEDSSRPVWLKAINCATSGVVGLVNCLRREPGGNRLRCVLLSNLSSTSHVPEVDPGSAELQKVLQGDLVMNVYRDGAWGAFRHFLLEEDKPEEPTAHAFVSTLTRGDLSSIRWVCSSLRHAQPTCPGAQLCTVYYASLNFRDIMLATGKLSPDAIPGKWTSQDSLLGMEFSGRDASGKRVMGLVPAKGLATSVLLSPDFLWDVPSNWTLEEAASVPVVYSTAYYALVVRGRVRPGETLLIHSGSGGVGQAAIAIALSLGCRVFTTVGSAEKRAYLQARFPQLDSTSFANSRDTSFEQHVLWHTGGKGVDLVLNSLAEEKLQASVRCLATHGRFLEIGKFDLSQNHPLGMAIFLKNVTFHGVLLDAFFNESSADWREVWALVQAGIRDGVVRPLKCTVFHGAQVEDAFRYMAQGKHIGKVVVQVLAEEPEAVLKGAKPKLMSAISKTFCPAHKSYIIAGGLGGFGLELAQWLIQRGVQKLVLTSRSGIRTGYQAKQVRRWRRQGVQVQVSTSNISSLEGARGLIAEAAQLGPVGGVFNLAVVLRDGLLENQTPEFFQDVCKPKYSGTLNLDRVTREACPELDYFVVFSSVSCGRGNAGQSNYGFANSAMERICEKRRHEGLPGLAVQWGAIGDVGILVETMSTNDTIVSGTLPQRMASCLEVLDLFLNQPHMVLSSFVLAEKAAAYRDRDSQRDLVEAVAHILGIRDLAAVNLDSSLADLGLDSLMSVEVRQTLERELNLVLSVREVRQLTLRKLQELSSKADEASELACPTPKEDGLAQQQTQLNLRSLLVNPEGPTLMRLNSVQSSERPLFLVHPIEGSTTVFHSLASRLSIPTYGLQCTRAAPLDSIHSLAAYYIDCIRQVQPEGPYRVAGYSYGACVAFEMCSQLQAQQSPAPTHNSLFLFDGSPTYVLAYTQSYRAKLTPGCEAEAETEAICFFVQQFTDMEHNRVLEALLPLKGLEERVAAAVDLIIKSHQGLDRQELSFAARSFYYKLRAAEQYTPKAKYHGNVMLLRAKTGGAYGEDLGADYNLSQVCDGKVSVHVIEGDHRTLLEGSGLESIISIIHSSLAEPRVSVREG

B1: USP22 (enzyme, UniProt Q9UPT9 1-525)
chain: MVSRPEPEGEAMDAELAVAPPGCSHLGSFKVDNWKQNLRAIYQCFVWSGTAEARKRKAKSCICHVCGVHLNRLHSCLYCVFFGCFTKKHIHEHAKAKRHNLAIDLMYGGIYCFLCQDYIYDKDMEIIAKEEQRKAWKMQGVGEKFSTWEPTKRELELLKHNPKRRKITSNCTIGLRGLINLGNTCFMNCIVQALTHTPLLRDFFLSDRHRCEMQSPSSCLVCEMSSLFQEFYSGHRSPHIPYKLLHLVWTHARHLAGYEQQDAHEFLIAALDVLHRHCKGDDNGKKANNPNHCNCIIDQIFTGGLQSDVTCQVCHGVSTTIDPFWDISLDLPGSSTPFWPLSPGSEGNVVNGESHVSGTTTLTDCLRRFTRPEHLGSSAKIKCSGCHSYQESTKQLTMKKLPIVACFHLKRFEHSAKLRRKITTYVSFPLELDMTPFMASSKESRMNGQYQQPTDSLNNDNKYSLFAVVNHQGTLESGHYTSFIRQHKDQWFKCDDAIITKASIKDVLDSEGYLLFYHKQFLEYE
B2: HA-USP22 (enzyme, UniProt Q9UPT9 1-525)
chain: MVSRPEPEGEAMDAELAVAPPGCSHLGSFKVDNWKQNLRAIYQCFVWSGTAEARKRKAKSCICHVCGVHLNRLHSCLYCVFFGCFTKKHIHEHAKAKRHNLAIDLMYGGIYCFLCQDYIYDKDMEIIAKEEQRKAWKMQGVGEKFSTWEPTKRELELLKHNPKRRKITSNCTIGLRGLINLGNTCFMNCIVQALTHTPLLRDFFLSDRHRCEMQSPSSCLVCEMSSLFQEFYSGHRSPHIPYKLLHLVWTHARHLAGYEQQDAHEFLIAALDVLHRHCKGDDNGKKANNPNHCNCIIDQIFTGGLQSDVTCQVCHGVSTTIDPFWDISLDLPGSSTPFWPLSPGSEGNVVNGESHVSGTTTLTDCLRRFTRPEHLGSSAKIKCSGCHSYQESTKQLTMKKLPIVACFHLKRFEHSAKLRRKITTYVSFPLELDMTPFMASSKESRMNGQYQQPTDSLNNDNKYSLFAVVNHQGTLESGHYTSFIRQHKDQWFKCDDAIITKASIKDVLDSEGYLLFYHKQFLEYE

Experiments:
[1] = target: Fatty Acid Synthase (FASN) (human (endogenous in RKO E6 and HT29)) (UniProt P49327); assay: co-IP; reciprocal immunoprecipitation of RKO E6 and HT29 cell lysates with antibodies against USP22 and FASN, immunoblotting; IgG as isotype control
Flag-FASN (human) = Flag-FASN (human) (UniProt P49327); assay: co-IP; 293T cells co-transfected with HA-USP22 and Flag-tagged FASN constructs; lysates immunoprecipitated (anti-Flag antibody in Fig. 2C), immunoblotting

Binder | binding [1] | binding (Flag-FASN (human))
B1 | binds | 
B2 |  | binds
